Laboratory results reported in PubChem BioAssay AID192 (DTP/NCI, 2004).
The list does not hold the whole screen: it gathers tests that were run many times, whatever their T/C, doses with no T/C, and many T/C values between a quarter and a half above the control. Other doses and runs of a compound stand elsewhere. T/C gives the treated animals as a percentage of the vehicle group. Some entries give survivors of the animals treated and no T/C: the source files T/C as zero there, which appears to mark a toxic dose or a test without result, not a measured value. Some doses without a T/C left all or most animals alive at the check, yet need not have been tolerated: survival well below the control is almost never listed, so the zero probably covers shortened survival too. Survivors were counted at the toxicity check, usually on the fifth day, unless a day is given; later deaths do not show. Schedules are NCI's codes, taken here to give the interval after Q, in days (D) or hours (H), and the number of doses after X. Some entries hold several experiments; the results are listed from low to high. Additions like (4×) stand for listed records that agree. Where survival is the endpoint, the PubChem record calls one and a half times the control and up active, and a quarter to a half above the control has no call in these data; cut-offs in other NCI protocols can differ. Square brackets hold non-standard residues; d marks the D form. Peptide text beside a SMILES is read from it. * marks the point of attachment. ξ: configuration not given here. ξF = NC(Cc1ccccc1)C(=O)O; Cbz = O=C(OCc1ccccc1)*; Sar = CNCC(=O)O

Tested on: BDF1 mice, B16 melanoma ip, median survival T/C
Test: NCI In Vivo Anticancer Drug Screen. Data for tumor model B16 Melanoma (intraperitoneal) in B6D2F1 (BDF1) mice
Settings: T/C endpoint: median survival time, higher T/C = longer survival
In short: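 Mice with transplantable tumors; drug vs vehicle groups; endpoint survival or tumor size; value = T/C.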

[1] = dose: 200.0 mg/kg/injection, schedule: Q01DX009 (ip), vehicle: saline
[2] = dose: 200.0 mg/kg/injection, schedule: Q01DX009 (ip), vehicle: Klucel (hydroxypropylcellulose) (HPC)
[3] = dose: 400.0 mg/kg/injection, schedule: Q01DX009 (ip), vehicle: Klucel (hydroxypropylcellulose) (HPC)
[4] = dose: 20.0 mg/kg/injection, schedule: Q01DX009 (ip), vehicle: saline with Tween-80
[5] = dose: 100.0 mg/kg/injection, schedule: Q01DX009 (ip), vehicle: Klucel (hydroxypropylcellulose) (HPC)
[6] = dose: 100.0 mg/kg/injection, schedule: Q01DX009 (ip), vehicle: saline with Tween-80
[7] = dose: 200.0 mg/kg/injection, schedule: Q01DX009 (ip), vehicle: saline with Tween-80
[8] = dose: 400.0 mg/kg/injection, schedule: Q01DX009 (ip), vehicle: saline with Tween-80

## CCC1(O)CC2CN(CCc3c([nH]c4ccccc34)C(C(=O)OC)(c3cc4c(cc3OC)N(C)C3C(O)(C(=O)NCCSSCCNC(=O)C5(O)C(O)C6(CC)C=CCN7CCC8(c9cc(C%10(C(=O)OC)CC%11CN(CCc%12c%10[nH]c%10ccccc%12%10)CC(O)(CC)C%11)c(OC)cc9N(C)C58)C76)C(O)C5(CC)C=CCN6CCC43C65)C2)C1 (stereo not given)
dose: 0.25 mg/kg/injection, schedule: Q04DX003 (ip), vehicle: saline
  T/C: 137 % of control
dose: 0.38 mg/kg/injection, schedule: Q01DX009 (ip), vehicle: saline
  T/C: 139 % of control
dose: 0.5 mg/kg/injection, schedule: Q04DX003 (ip), vehicle: saline
  T/C: 132 % of control
dose: 1.8 mg/kg/injection, schedule: Q01DX009 (ip), vehicle: saline
  survivor count: 9 of 10
dose: 2.0 mg/kg/injection, schedule: Q04DX003 (ip), vehicle: saline
  survivor count: 8 of 10
dose: 3.0 mg/kg/injection, schedule: Q01DX009 (ip), vehicle: saline
  survivor count: 5 of 10
dose: 233.0 micrograms/kg/injection, schedule: Q04DX003 (ip), vehicle: saline
  T/C: 130 % of control
dose: 389.0 micrograms/kg/injection, schedule: Q04DX003 (ip), vehicle: saline
  T/C: 147 % of control
dose: 648.0 micrograms/kg/injection, schedule: Q04DX003 (ip), vehicle: saline
  T/C: 131 % of control
dose: 1080.0 micrograms/kg/injection, schedule: Q04DX003 (ip), vehicle: saline
  T/C: 130 % of control
dose: 1800.0 micrograms/kg/injection, schedule: Q04DX003 (ip), vehicle: saline
  T/C: 133 % of control
dose: 3000.0 micrograms/kg/injection, schedule: Q04DX003 (ip), vehicle: saline
  survivor count: 9 of 10 and 10 of 10

## NC(=O)CC1=NCCc2ccccc21
[1]
  survivor count: 6 of 6
dose: 400.0 mg/kg/injection, schedule: Q01DX009 (ip), vehicle: saline
  survivor count: 2 of 6

## Cc1nn(-c2ccccc2)c(N)c1C#N
[2]
  survivor count: 10 of 10
[3]
  survivor count: 0 of 10

## Cc1ccc2c(ccc3c[n+]4ccccc4c(C)c32)c1
dose: 10.0 mg/kg/injection, schedule: Q01DX009 (ip), vehicle: saline with Tween-80
  survivor count: 4 of 10 (2×)
[4]
  survivor count: 1 of 10

## CS(=O)(=O)OCC1CCCCO1 (stereo not given)
dose: 200.0 mg/kg/injection, schedule: Q04DX003 (ip), vehicle: Klucel (hydroxypropylcellulose) (HPC)
  survivor count: 6 of 10

## CCCCCCCCC(=O)OCCNC(=O)C(C)OC(=O)CCCCCCCC (stereo not given)
[5]
  survivor count: 10 of 10
[2]
  survivor count: 10 of 10
[3]
  survivor count: 10 of 10

## CCOc1nc(N)c(C(N)=O)cc1C#N
dose: 66.0 mg/kg/injection, schedule: Q01DX009 (ip), vehicle: saline with Tween-80
  survivor count: 0 of 10
[6]
  survivor count: 0 of 10
dose: 150.0 mg/kg/injection, schedule: Q01DX009 (ip), vehicle: saline with Tween-80
  survivor count: 0 of 10

## Clc1nc(SC2=NCCN2)c2[nH]cnc2n1
[4]
  survivor count: 10 of 10
dose: 40.0 mg/kg/injection, schedule: Q01DX009 (ip), vehicle: saline with Tween-80
  survivor count: 10 of 10
dose: 80.0 mg/kg/injection, schedule: Q01DX009 (ip), vehicle: saline with Tween-80
  survivor count: 2 of 10

## O=C1OC(C(O)CO)C(O)=C1O (stereo not given)
dose: 32.0 mg/kg/injection, schedule: Q01DX009 (ip), vehicle: saline
  survivor count: 0 of 10

## COc1ccc2c(c1)N(CCCN(C)C)c1ccccc1S2
dose: 9.37 mg/kg/injection, schedule: Q01DX009 (ip), vehicle: saline
  survivor count: 10 of 10
dose: 75.0 mg/kg/injection, schedule: Q01DX009 (ip), vehicle: saline
  survivor count: 0 of 10
dose: 150.0 mg/kg/injection, schedule: Q01DX009 (ip), vehicle: saline
  survivor count: 0 of 10
dose: 300.0 mg/kg/injection, schedule: Q01DX009 (ip), vehicle: saline
  survivor count: 0 of 10

## COc1ccc2c(c1Oc1ccc([N+](=O)[O-])cc1[N+](=O)[O-])C13CCN(C)C(C2)C1CCC1(C3)OCCO1 (stereo not given)
[3]
  survivor count: 4 of 10

## COc1cc2c(c(OC)c1OC)-c1ccc(OC)c(=O)cc1C(NC(=O)COc1ccccc1)CC2 (stereo not given)
dose: 0.63 mg/kg/injection, schedule: Q01DX009 (ip), vehicle: Klucel (hydroxypropylcellulose) (HPC)
  T/C: 141 % of control
dose: 5.0 mg/kg/injection, schedule: Q01DX009 (ip), vehicle: Klucel (hydroxypropylcellulose) (HPC)
  survivor count: 10 of 10

## Clc1sc2ccccc2c1Cl
[5]
  survivor count: 9 of 10
[2]
  survivor count: 3 of 10

## Cc1ccc(NC(=O)c2ccc(C(=O)Nc3ccc(C)cc3)cc2)cc1
[6]
  survivor count: 10 of 10
[7]
  survivor count: 9 of 10
[8]
  survivor count: 10 of 10

## CC[CH2][Pb]([CH2]CC)([CH2]CC)[N]1C(=O)c2ccccc2C1=O
dose: 12.5 mg/kg/injection, schedule: Q01DX009 (ip), vehicle: Klucel (hydroxypropylcellulose) (HPC)
  survivor count: 10 of 10
dose: 25.0 mg/kg/injection, schedule: Q01DX009 (ip), vehicle: Klucel (hydroxypropylcellulose) (HPC)
  survivor count: 2 of 10

## CCCCNC(=O)C1C=C2c3cccc4[nH]cc(c34)CC2N(C)C1 (stereo not given)
dose: 6.25 mg/kg/injection, schedule: Q01DX009 (ip), vehicle: Klucel (hydroxypropylcellulose) (HPC)
  survivor count: 10 of 10
[5]
  survivor count: 1 of 10
[2]
  survivor count: 2 of 10

## OCCNCCN1CCN(CCCN2c3ccccc3Sc3ccc(C(F)(F)F)cc32)CC1
dose: 3.12 mg/kg/injection, schedule: Q01DX009 (ip), vehicle: saline
  survivor count: 10 of 10
dose: 35.0 mg/kg/injection, schedule: Q01DX009 (ip), vehicle: saline
  survivor count: 8 of 10
dose: 55.0 mg/kg/injection, schedule: Q01DX009 (ip), vehicle: saline
  survivor count: 5 of 10
dose: 80.0 mg/kg/injection, schedule: Q01DX009 (ip), vehicle: saline
  survivor count: 0 of 10

## OCN(CO)c1nc(N(CO)CO)nc(N(CO)CO)n1
[6]
  survivor count: 6 of 10
[8]
  survivor count: 0 of 10
dose: 800.0 mg/kg/injection, schedule: Q01DX009 (ip), vehicle: saline with Tween-80
  survivor count: 0 of 10

## COc1ccc(NC(=O)Nc2cc(C(F)(F)F)ccc2Cl)cc1
[6]
  survivor count: 10 of 10
[7]
  survivor count: 10 of 10
[8]
  survivor count: 10 of 10

## O=CN(O)CC(=O)O.[Zn]
dose: 40.0 mg/kg/injection, schedule: Q01DX009 (ip), vehicle: saline
  survivor count: 0 of 10

## CCCCCCCCCCCCCCCC(=O)N(C/C=C/CN(C(=O)CCCCCCCCCCCCCCC)C(C)CCCN(CC)CC)C(C)CCCN(CC)CC (stereo not given)
dose: 25.0 mg/kg/injection, schedule: Q01DX009 (ip), vehicle: other
  survivor count: 10 of 10
dose: 50.0 mg/kg/injection, schedule: Q01DX009 (ip), vehicle: other
  survivor count: 5 of 10

## O=C(/C(=N\Nc1ccc([N+](=O)[O-])cc1)c1ccccc1)c1ccccc1
dose: 25.0 mg/kg/injection, schedule: Q01DX009 (ip), vehicle: saline with Tween-80
  survivor count: 10 of 10

## C/C=C(\Cl)C1=CC(=O)C23CC2C2(C)COC1(O)C3(O)O2 (stereo not given)
dose: 1.5 mg/kg/injection, schedule: Q01DX009 (ip), vehicle: saline with Tween-80
  survivor count: 10 of 10
dose: 3.0 mg/kg/injection, schedule: Q01DX009 (ip), vehicle: saline with Tween-80
  survivor count: 10 of 10
dose: 6.0 mg/kg/injection, schedule: Q01DX009 (ip), vehicle: saline with Tween-80
  survivor count: 10 of 10
dose: 12.0 mg/kg/injection, schedule: Q01DX009 (ip), vehicle: saline with Tween-80
  survivor count: 2 of 10
dose: 24.0 mg/kg/injection, schedule: Q01DX009 (ip), vehicle: saline with Tween-80
  survivor count: 0 of 10
dose: 48.0 mg/kg/injection, schedule: Q01DX009 (ip), vehicle: saline with Tween-80
  survivor count: 0 of 10

## CN(CC(=O)NC(Cc1ccccc1)C(=O)O)C(=O)OCc1ccccc1 (stereo not given) (Cbz-[Sar]-[ξF]-OH)
[8]
  survivor count: 10 of 10

## CCOC(=O)N1CCN(CCCCCCOc2ccc(C3CCCCC3)cc2)CC1
dose: 50.0 mg/kg/injection, schedule: Q01DX009 (ip), vehicle: saline
  survivor count: 9 of 10
dose: 100.0 mg/kg/injection, schedule: Q01DX009 (ip), vehicle: saline
  survivor count: 10 of 10
[1]
  survivor count: 9 of 10
